Laboratory results published in patent US20040018558A1.
No constants are given. Whether binding was seen depends on the method and setting. Some binding calls cover weakened binding; strength is not graded here. For some assays here: Tags and fused reporters may be left off the sequences shown.

Biological target: T1, human thrombin receptor (PAR1) (human) (UniProt P25116)
T1 sequence (looked up): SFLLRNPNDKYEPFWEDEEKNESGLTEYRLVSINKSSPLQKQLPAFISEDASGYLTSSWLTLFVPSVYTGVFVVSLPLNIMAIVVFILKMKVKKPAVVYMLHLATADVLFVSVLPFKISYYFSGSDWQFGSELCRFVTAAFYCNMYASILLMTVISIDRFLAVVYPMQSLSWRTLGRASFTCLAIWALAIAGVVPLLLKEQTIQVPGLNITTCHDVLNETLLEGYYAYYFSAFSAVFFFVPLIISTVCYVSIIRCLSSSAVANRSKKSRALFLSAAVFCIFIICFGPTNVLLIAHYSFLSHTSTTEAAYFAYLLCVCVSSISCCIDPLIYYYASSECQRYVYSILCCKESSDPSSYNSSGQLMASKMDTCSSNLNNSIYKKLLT
Test: ELISA, purified MBP clone on Sf9 membranes with PAR1 or M1 receptor

Q: How did the binding turn out when VRPSLQLNRNEYYLV (peptide, not shown: large carriers) [MBP clone PAR-13] was run?
A: binds

Q: LPQMQRLNVGEYNLV (peptide, not shown: large carriers) [MBP clone PAR-34] was tested. Which binding did it give?
A: binds

Biological target: T1, human thrombin receptor (PAR1) (human)
Test: LacI display panning of the G13 library, CHO membranes with PAR1

Q: How did the binding turn out when LIVKVKQLIWQ (peptide, not shown: small tags and cut ends) was run?
A: binds

Q: MRAKLNNLMLE (peptide, not shown: small tags and cut ends) was tested. Which binding did it give?
A: binds

Q: Which binding does the source give for LQDNLRHLIQ (peptide, not shown: small tags and cut ends) here?
A: binds

Q: LQDNRNQLLF (peptide, not shown: small tags and cut ends) was tested. Which binding did it give?
A: binds

Q: How did the binding turn out when LQDNLRHLMLQ (peptide, not shown: small tags and cut ends) was run?
A: binds

Q: With LQDKINHLMLQ (peptide, not shown: small tags and cut ends) as the binder, how does the binding read?
A: binds

Q: LQANRKLGMLQ (peptide, not shown: small tags and cut ends) was tested. Which binding did it give?
A: binds

Biological target: T1, human thrombin receptor (PAR1) (human)
Test: LacI display panning of the Gt library, CHO membranes with PAR1

Q: With FWGNLQDSGLF (peptide, not shown: small tags and cut ends) as the binder, how does the binding read?
A: binds

Q: For RRGNGKDCRHF (peptide, not shown: small tags and cut ends), which binding is on record?
A: binds

Q: IREFLTDCGLF (peptide, not shown: small tags and cut ends) was tested. Which binding did it give?
A: binds

Q: How did the binding turn out when IRLDLKDVSLF (peptide, not shown: small tags and cut ends) was run?
A: binds

Q: For ICERLNDCGLC (peptide, not shown: small tags and cut ends), which binding is on record?
A: binds

Q: How did the binding turn out when PRDNTKVRGLF (peptide, not shown: small tags and cut ends) was run?
A: binds

Biological target: T1, human thrombin receptor (PAR1) (human)
Test: LacI display panning of the G12 library, CHO membranes with PAR1

Q: For LKEHLMERMLQ (peptide, not shown: small tags and cut ends), which binding is on record?
A: binds

Q: With LLGMLEPLMEQ (peptide, not shown: small tags and cut ends) as the binder, how does the binding read?
A: binds

Q: For LQENLKEMMLQ (peptide, not shown: small tags and cut ends), which binding is on record?
A: binds

Q: LEENLKYRMLD (peptide, not shown: small tags and cut ends) was tested. Which binding did it give?
A: binds

Q: For LQEDLKGMTLQ (peptide, not shown: small tags and cut ends), which binding is on record?
A: binds
